Data reported in EPA's ToxValDB 9.5.
Several values for one entry are separate records, joined by “and”; a condition that tells them apart may be missing. Equal entries are not always repeated.

System: Rattus norvegicus
Settings: oral, gavage; for NOAEL: Crj:CD

Q: What does the source list for CC(C)(C)c1ccc(O)cc1 [4-(1,1-Dimethylethyl)phenol]?
A: LD50 (acute, Sprague-Dawley): > 2000 mg/kg and 5360 mg/kg; NOAEL (reproduction developmental): 200 mg/kg-day; NOAEL (subchronic): 200 mg/kg-day
